Reference: publication PMC6378214
No constants are given. Whether binding was seen depends on the method and setting. In cells and extracts the contact can be indirect. Some entries that bind do so weakly or less than the wild type.

Protein sequences, listed by entry. Tags and fused reporters are not part of them.
UniProt P07355: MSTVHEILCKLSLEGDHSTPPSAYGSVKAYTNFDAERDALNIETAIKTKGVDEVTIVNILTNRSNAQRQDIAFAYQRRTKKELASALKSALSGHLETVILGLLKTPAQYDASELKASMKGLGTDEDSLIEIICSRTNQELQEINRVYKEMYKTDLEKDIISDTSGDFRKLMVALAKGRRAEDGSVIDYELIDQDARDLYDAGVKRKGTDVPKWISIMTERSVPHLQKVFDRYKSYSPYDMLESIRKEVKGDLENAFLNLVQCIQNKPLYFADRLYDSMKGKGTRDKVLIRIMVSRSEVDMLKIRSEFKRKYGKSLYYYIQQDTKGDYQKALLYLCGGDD
UniProt P60903: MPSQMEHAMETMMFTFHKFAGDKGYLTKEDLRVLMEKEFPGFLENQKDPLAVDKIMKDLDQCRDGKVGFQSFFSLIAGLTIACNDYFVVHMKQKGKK

What was measured:
[1] = biological target: Annexin A2 (ANXA2), endogenous (human (endogenous in HCC cell lines)) (UniProt P07355); assay: co-IP; ANXA2 precipitated, S100A10 detected; LUCAT1 knockdown cells and LUCAT1 overexpressing cells
[2] = biological target: S100A10 (human (endogenous in HCC cell lines)) (UniProt P60903); assay: co-IP; precipitation with S100A10 antibody in ANXA2 overexpressing cells

Substance | binding [1] | binding [2]
S100A10 (from UniProt P60903 1-97) | binds | –
Annexin A2 (ANXA2), overexpressed full-length (from UniProt P07355 1-339) | – | binds
